Experimental findings from publication PMC5042403 are described below.

Amino acid sequences for entries named in this document (tags omitted).
UniProt Q96533: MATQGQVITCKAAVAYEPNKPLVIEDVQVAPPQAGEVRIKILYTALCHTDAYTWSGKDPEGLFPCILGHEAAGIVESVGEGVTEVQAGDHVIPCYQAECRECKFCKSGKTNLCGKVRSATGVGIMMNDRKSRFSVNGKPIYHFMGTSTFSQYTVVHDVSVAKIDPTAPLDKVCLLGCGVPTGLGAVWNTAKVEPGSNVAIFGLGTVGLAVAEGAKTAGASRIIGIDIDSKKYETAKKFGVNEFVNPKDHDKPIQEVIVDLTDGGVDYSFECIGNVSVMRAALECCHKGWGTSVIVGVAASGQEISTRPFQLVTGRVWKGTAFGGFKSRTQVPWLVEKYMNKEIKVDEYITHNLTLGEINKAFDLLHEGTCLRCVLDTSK

Test [1] deals with GSNOR-YN (N-terminal half of YFP fused to S-nitrosoglutathione reductase) (Arabidopsis thaliana) (UniProt Q96533). The experiment in a line: split reporter; BiFC; split-YFP fusions co-expressed transiently in 3-week-old tobacco leaves by Agrobacterium infiltration; YFP imaged 2 days after infiltration.
For test [2], the target named is GSNOR-YC (C-terminal half of YFP fused to S-nitrosoglutathione reductase) (Arabidopsis thaliana) (UniProt Q96533). Described as above.

No constants are given. Whether binding was seen depends on the method and setting. In cells and extracts the contact can be indirect. Some entries that bind do so weakly or less than the wild type.

For the substance “CaM4-YC (C-terminal half of YFP fused to AtCaM4) (from UniProt P0DH96 1-149)”, the binding entry in test [1] is “binds”.

Consider “CaM4-YN (N-terminal half of YFP fused to AtCaM4) (from UniProt P0DH96 1-149)”, for which, in test [2], the binding result is listed as “binds”.
